Read-outs that look alike come from different tables or passages of the source. Results are given in words; binding and its absence hold for the method and conditions named. Binding seen in cells or lysates may run through a third protein. Some entries that bind do so weakly or less than the wild type. For some of these results: Sequences can lack the tags named with a protein.
T1: Ada2-TAP (S. cerevisiae) (UniProt Q02336)
T1 sequence: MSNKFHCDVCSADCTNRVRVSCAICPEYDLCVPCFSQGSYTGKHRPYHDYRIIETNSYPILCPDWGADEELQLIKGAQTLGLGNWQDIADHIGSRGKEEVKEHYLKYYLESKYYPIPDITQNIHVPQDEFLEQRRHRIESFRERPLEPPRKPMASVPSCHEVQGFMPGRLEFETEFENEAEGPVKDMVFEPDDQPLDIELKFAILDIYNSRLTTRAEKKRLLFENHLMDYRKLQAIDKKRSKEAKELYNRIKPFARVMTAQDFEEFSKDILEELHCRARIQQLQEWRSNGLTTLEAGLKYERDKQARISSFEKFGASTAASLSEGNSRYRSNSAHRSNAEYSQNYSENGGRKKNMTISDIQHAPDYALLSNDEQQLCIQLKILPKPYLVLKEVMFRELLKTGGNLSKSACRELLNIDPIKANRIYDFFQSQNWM

Protein sequences, listed by entry. Tags and fused reporters are not part of them.
UniProt Q03330: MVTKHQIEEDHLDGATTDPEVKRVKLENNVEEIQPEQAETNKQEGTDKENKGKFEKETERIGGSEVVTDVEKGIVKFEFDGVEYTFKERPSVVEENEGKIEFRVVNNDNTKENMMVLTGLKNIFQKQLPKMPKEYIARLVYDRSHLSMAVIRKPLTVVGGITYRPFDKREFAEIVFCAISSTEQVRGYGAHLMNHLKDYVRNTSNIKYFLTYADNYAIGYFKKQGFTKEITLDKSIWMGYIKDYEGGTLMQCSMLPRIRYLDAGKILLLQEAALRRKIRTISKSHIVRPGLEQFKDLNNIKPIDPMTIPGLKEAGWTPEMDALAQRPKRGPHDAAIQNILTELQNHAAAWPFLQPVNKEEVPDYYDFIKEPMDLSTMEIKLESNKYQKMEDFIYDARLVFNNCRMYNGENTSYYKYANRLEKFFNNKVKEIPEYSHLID

T2: Spt20-TAP (S. cerevisiae) (UniProt P50875)
T2 sequence: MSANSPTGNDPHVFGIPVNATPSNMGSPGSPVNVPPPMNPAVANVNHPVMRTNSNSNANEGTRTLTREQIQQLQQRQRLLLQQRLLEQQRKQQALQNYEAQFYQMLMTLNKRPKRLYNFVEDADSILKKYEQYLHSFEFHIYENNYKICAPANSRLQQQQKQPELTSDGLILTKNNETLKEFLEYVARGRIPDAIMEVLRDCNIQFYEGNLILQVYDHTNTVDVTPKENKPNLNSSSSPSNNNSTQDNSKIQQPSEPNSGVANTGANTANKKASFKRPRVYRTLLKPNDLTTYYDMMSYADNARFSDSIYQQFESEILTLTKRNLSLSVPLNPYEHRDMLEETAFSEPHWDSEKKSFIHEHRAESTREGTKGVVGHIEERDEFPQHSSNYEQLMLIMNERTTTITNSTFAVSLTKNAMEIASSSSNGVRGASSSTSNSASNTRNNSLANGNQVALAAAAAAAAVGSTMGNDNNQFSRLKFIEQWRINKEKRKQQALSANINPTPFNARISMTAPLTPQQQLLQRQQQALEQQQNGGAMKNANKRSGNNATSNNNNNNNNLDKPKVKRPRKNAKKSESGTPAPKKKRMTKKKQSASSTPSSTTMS

T3: Ada1-TAP (S. cerevisiae) (UniProt Q12060)
T3 sequence: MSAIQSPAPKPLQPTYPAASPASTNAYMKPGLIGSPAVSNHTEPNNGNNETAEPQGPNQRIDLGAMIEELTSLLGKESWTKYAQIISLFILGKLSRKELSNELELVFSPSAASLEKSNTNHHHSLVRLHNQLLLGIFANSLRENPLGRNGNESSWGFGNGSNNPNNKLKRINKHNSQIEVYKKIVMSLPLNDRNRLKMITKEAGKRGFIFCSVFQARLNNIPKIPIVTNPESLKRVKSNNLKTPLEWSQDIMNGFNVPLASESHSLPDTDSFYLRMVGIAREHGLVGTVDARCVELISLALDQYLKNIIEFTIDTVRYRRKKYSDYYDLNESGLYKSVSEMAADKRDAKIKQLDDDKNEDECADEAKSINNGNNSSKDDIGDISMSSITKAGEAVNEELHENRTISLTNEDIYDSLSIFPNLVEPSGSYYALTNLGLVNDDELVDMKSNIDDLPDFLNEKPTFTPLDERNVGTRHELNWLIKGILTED

T4: Ada3-TAP (S. cerevisiae) (UniProt P32494)
T4 sequence: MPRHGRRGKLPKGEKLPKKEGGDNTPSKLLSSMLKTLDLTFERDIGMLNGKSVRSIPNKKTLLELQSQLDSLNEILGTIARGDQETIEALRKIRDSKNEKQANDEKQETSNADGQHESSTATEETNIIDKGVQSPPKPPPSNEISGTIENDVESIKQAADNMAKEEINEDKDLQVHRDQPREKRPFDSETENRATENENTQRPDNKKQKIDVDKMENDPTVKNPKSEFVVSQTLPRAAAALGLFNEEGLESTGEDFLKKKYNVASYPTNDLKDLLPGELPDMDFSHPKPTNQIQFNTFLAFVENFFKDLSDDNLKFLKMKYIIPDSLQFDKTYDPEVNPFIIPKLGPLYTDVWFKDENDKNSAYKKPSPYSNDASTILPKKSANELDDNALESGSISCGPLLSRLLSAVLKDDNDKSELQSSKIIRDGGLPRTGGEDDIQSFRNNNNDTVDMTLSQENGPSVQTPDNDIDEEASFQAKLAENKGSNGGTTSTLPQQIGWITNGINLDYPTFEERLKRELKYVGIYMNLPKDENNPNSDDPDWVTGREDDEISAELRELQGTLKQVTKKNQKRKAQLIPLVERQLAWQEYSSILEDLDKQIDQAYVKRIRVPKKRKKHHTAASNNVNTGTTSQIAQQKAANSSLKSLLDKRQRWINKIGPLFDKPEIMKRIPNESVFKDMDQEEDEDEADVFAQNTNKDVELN

T5: Sgf29-TAP (S. cerevisiae) (UniProt P25554)
T5 sequence: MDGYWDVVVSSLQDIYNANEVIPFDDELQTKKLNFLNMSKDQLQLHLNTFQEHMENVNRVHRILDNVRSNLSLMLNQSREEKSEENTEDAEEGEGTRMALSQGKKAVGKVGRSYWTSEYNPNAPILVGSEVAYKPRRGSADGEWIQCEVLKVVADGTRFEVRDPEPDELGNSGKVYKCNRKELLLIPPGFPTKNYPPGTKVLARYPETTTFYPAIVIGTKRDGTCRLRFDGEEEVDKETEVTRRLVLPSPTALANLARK


Assays:
Ada2-TAP (S. cerevisiae) [1] = molecular target: T1, Ada2-TAP (S. cerevisiae); assay: co-IP; purification of Ada2, Spt20 or Gcn5 from deletion strains (spt20Δ, ada2Δ, sgf73Δ, gcn5Δ), Supplementary Figure S3; tags and read-out not shown
[2] = molecular target: T2, Spt20-TAP (S. cerevisiae); assay: as above
Ada1-TAP (S. cerevisiae) = molecular target: T3, Ada1-TAP (S. cerevisiae); assay: co-IP; single affinity purification step of the TAP-tagged subunit on IgG sepharose, TEV elution, 1-20% sucrose gradient, fractions blotted with anti-CBP, anti-Taf9 and anti-Spt3; WT and not5Δ cells (Ada1-TAP: WT and ada2Δ)
Ada3-TAP (S. cerevisiae) = molecular target: T4, Ada3-TAP (S. cerevisiae); assay: as above
[3] = molecular target: T5, Sgf29-TAP (S. cerevisiae); assay: as above
[4] = molecular target: T2, Spt20-TAP (S. cerevisiae); assay: as above
Gcn5-TAP (S. cerevisiae) [5] = molecular target: Gcn5-TAP (S. cerevisiae) (UniProt Q03330); assay: co-IP; Gcn5-TAP purified by a single affinity step from cells expressing Spt20-MYC, TEV elution, western blot with MYC and CBP antibodies; WT, not5Δ and tdh3Δ cells
Ada2-TAP (S. cerevisiae) [6] = molecular target: T1, Ada2-TAP (S. cerevisiae); assay: co-IP; purification of Ada2, Spt20 or Gcn5 from deletion strains (spt20Δ, ada2Δ, sgf73Δ, gcn5Δ), Supplementary Figure S3; tags and read-out not shown; remark: listed apart in the source
Gcn5-TAP (S. cerevisiae) [7] = molecular target: Gcn5-TAP (S. cerevisiae) (UniProt Q03330); assay: as above

Row | binding (Ada1-TAP (S. cerevisiae)) | binding (Ada3-TAP (S. cerevisiae)) | binding [3] | binding [4] | Molecule | further results
1 |  |  |  |  | Gcn5 (from UniProt Q03330 1-439) | binding (Ada2-TAP (S. cerevisiae) [1]): binds; binding [2]: binds
2 | binds | binds | binds | binds | Taf9 (protein, UniProt Q05027 1-157) MNGGGKNVLNKNSVGSVSEVGPDSTQEETPRDVRLLHLLLASQSIHQYEDQVPLQLMDFAHRYTQGVLKDALVYNDYAGSGNSAGSGLGVEDIRLAIAARTQYQFKPTAPKELMLQLAAERNKKALPQVMGTWGVRLPPEKYCLTAKEWDLEDPKSM | 
3 |  |  |  |  | Spt20-MYC (protein, UniProt P50875 1-604) MSANSPTGNDPHVFGIPVNATPSNMGSPGSPVNVPPPMNPAVANVNHPVMRTNSNSNANEGTRTLTREQIQQLQQRQRLLLQQRLLEQQRKQQALQNYEAQFYQMLMTLNKRPKRLYNFVEDADSILKKYEQYLHSFEFHIYENNYKICAPANSRLQQQQKQPELTSDGLILTKNNETLKEFLEYVARGRIPDAIMEVLRDCNIQFYEGNLILQVYDHTNTVDVTPKENKPNLNSSSSPSNNNSTQDNSKIQQPSEPNSGVANTGANTANKKASFKRPRVYRTLLKPNDLTTYYDMMSYADNARFSDSIYQQFESEILTLTKRNLSLSVPLNPYEHRDMLEETAFSEPHWDSEKKSFIHEHRAESTREGTKGVVGHIEERDEFPQHSSNYEQLMLIMNERTTTITNSTFAVSLTKNAMEIASSSSNGVRGASSSTSNSASNTRNNSLANGNQVALAAAAAAAAVGSTMGNDNNQFSRLKFIEQWRINKEKRKQQALSANINPTPFNARISMTAPLTPQQQLLQRQQQALEQQQNGGAMKNANKRSGNNATSNNNNNNNNLDKPKVKRPRKNAKKSESGTPAPKKKRMTKKKQSASSTPSSTTMS | binding (Gcn5-TAP (S. cerevisiae) [5]): binds
4 |  |  |  |  | Spt20 (protein, UniProt P50875 1-604) MSANSPTGNDPHVFGIPVNATPSNMGSPGSPVNVPPPMNPAVANVNHPVMRTNSNSNANEGTRTLTREQIQQLQQRQRLLLQQRLLEQQRKQQALQNYEAQFYQMLMTLNKRPKRLYNFVEDADSILKKYEQYLHSFEFHIYENNYKICAPANSRLQQQQKQPELTSDGLILTKNNETLKEFLEYVARGRIPDAIMEVLRDCNIQFYEGNLILQVYDHTNTVDVTPKENKPNLNSSSSPSNNNSTQDNSKIQQPSEPNSGVANTGANTANKKASFKRPRVYRTLLKPNDLTTYYDMMSYADNARFSDSIYQQFESEILTLTKRNLSLSVPLNPYEHRDMLEETAFSEPHWDSEKKSFIHEHRAESTREGTKGVVGHIEERDEFPQHSSNYEQLMLIMNERTTTITNSTFAVSLTKNAMEIASSSSNGVRGASSSTSNSASNTRNNSLANGNQVALAAAAAAAAVGSTMGNDNNQFSRLKFIEQWRINKEKRKQQALSANINPTPFNARISMTAPLTPQQQLLQRQQQALEQQQNGGAMKNANKRSGNNATSNNNNNNNNLDKPKVKRPRKNAKKSESGTPAPKKKRMTKKKQSASSTPSSTTMS | binding (Ada2-TAP (S. cerevisiae) [6]): binds; binding (Gcn5-TAP (S. cerevisiae) [7]): binds
5 | binds | binds | binds | binds | Spt3 (protein, UniProt P06844 1-337) MMDKHKYRVEIQQMMFVSGEINDPPVETTSLIEDIVRGQVIEILLQSNKTAHLRGSRSILPEDVIFLIRHDKAKVNRLRTYLSWKDLRKNAKDQDASAGVASGTGNPGAGGEDDLKKAGGGEKDEKDGGNMMKVKKSQIKLPWELQFMFNEHPLENNDDNDDMDEDEREANIVTLKRLKMADDRTRNMTKEEYVHWSDCRQASFTFRKNKRFKDWSGISQLTEGKPHDDVIDILGFLTFEIVCSLTETALKIKQREQVLQTQKDKSQQSSQDNTNFEFASSTLHRKKRLFDGPENVINPLKPRHIEEAWRVLQTIDMRHRALTNFKGGRLSSKPIIM | 
